Experimental data published in the supplement of paper PMC3334620.
The full ranking holds about 33,000 sequences; the median of “E-score (-0.5 to 0.5)” is about -0.016, and the highest 2% start at about 0.3. The list shows a part of the results.

target: T1, Yer184c (UniProt P39961); experiment: PBM E-score (8-mer binding enrichment) (E-score (-0.5 to 0.5)); higher = stronger / more preferred TF binding; settings: protein concentration: 100 nM; construct: GST-full length
T1 sequence: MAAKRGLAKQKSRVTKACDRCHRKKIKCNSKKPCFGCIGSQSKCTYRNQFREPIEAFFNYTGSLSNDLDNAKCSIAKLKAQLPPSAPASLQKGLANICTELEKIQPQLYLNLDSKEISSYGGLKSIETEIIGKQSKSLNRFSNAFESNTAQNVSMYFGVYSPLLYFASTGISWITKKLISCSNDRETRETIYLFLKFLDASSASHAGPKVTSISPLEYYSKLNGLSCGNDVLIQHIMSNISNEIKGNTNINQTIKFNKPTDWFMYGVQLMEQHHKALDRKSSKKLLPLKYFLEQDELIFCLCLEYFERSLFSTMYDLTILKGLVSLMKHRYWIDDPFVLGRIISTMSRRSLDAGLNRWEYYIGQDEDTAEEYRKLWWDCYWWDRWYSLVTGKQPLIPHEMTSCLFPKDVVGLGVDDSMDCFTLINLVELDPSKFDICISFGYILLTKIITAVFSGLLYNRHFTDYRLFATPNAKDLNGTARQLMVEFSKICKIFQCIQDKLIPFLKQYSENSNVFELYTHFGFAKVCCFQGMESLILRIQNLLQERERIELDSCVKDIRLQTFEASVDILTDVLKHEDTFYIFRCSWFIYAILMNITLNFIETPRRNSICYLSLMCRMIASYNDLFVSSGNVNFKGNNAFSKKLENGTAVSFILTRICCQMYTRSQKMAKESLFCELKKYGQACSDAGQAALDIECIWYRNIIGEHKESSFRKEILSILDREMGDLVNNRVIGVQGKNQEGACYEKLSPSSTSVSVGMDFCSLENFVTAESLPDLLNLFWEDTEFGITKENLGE
Summary of the method: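 Using PURExpress in vitro transcription/translation, GST-tagged yeast transcription factors were made in full-length or DNA-binding-domain form. These were applied at about 100-200 nM to double-stranded universal all-10-mer Agilent arrays, and bound protein was detected with fluorescent anti-GST. Scans were normalised with masliner before the Universal PBM Analysis Suite assigned E-scores to ungapped eight-base words pooled with their reverse complements.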

Row | Sequence | PBM E-score
1 | CTCGCCGA | 0.193
2 | ATCGGATC | 0.298
3 | AGGCGTTA | -0.172
4 | CAATCCAA | -0.12
5 | CAAAGATA | 0.156
6 | TACTACCA | -0.144
7 | CGTCCAGA | -0.136
8 | GCATATCC | 0.00395
9 | CCGGACAC | 0.286
10 | ATCTTGCA | 0.182
11 | GAAGCACC | -0.0419
12 | CCGTGCAG | 0.154
13 | GACTACTC | -0.0939
14 | AGATACTG | -0.0186
15 | ACTCTCAC | -0.00377
16 | CATAATAA | 0.0808
17 | AATTGCGT | 0.126
18 | CCTGAATA | 0.0707
19 | CACACAGC | -0.0282
20 | AATATTGC | 0.274
21 | AATGACGA | 0.0833
22 | AGCGCTCA | 0.0722

Row | Sequence | PBM E-score
23 | CCTTGTCA | -0.237
24 | AAATGTGA | -0.068
25 | CGAATTCG | 0.18
26 | GAACGCGA | -0.049
27 | AGAGCAGA | -0.0129
28 | ATATGTAC | 0.139
29 | CGCGCACC | 0.00887
30 | ACCGTATA | -0.129
31 | AGACGGAT | 0.195
32 | AAGCCGCT | 0.0949
33 | ATAGAAAA | -0.0185
34 | CAGAGGCA | -0.124
35 | TTAAGAAA | 0.069
36 | AAAAATAA | 0.237
37 | CCCGGTCC | 0.0252
38 | CACGTGGG | -0.235
39 | AGAAAATA | 0.231
40 | GCTCAAGC | -0.0698
41 | GGACGCTA | -0.185
42 | AAGCTTGC | -0.0849
43 | ACCGCGAC | -0.0671
44 | CCGTAGAA | 0.113

Reformatted with each value named: part of the list above.
AAGCCGCT
  PBM E-score = 0.0949
CAGAGGCA
  PBM E-score = -0.124
CACGTGGG
  PBM E-score = -0.235
CCGTAGAA
  PBM E-score = 0.113

Further records follow.

Row | Sequence | PBM E-score
45 | GGCCCATA | -0.169
46 | AGGTAGAG | -0.139
47 | CGGCAGTA | 0.14
48 | ACAGCGAC | -0.227
49 | ATTCCCGG | 0.384
50 | ACTTGGGC | -0.247
51 | CCTAAGAG | -0.152
52 | AGAGAACC | -0.0986
53 | TGGCCCCA | -0.35
54 | ACCTGCCT | -0.12
55 | CTAGATAG | -0.0568
56 | ATACGGAA | 0.412
57 | AGTCACGC | -0.222
58 | CCGATCGA | 0.118
59 | TCCCAGGA | -0.317
60 | GATAGAAA | 0.0417
61 | GAATTCCA | 0.193
62 | AAATCTTC | 0.0721
63 | AGGCAGAG | -0.124
64 | AACTATTC | -0.0137
65 | GGTGGTCA | -0.152
66 | ACTCCACC | -0.145

Row | Sequence | PBM E-score
67 | ATCTTTTC | 0.0824
68 | TGTGGAAA | 0.1
69 | AGAGAACA | 0.0881
70 | ACATAGCC | 0.0675
71 | ATTCCCGC | 0.3
72 | CCCGCTGA | -0.196
73 | CCCTATTC | -0.152
74 | AGGAGCCG | 0.0636
75 | CACATTCC | -0.157
76 | CCCATAGG | -0.0316
77 | GTATCAAA | 0.112
78 | CCTTGGCA | -0.254
79 | GTTATCGA | 0.0441
80 | ACTTAAAA | 0.205
81 | ATGCGCGC | 0.0459
82 | ACGGTTGC | -0.129
83 | AAGGGGCC | -0.282
84 | CGGCTATC | 0.285
85 | CTGGCCAA | -0.0884
86 | CACCTCGC | -0.0773
